Results of single-concentration screens

From ChEMBL document CHEMBL3988442, “University of Dundee, Small-Polar-MMV Screening Library” (2021).

Each number is a percent effect as filed. The record does not define 0% and 100%; most values in the screen are far below 50% and negative numbers occur (in some assays of this library far below -100). The compounds are a random part of those screened. Two or more numbers in one place are separate tests of the same structure; such repeats can differ widely.

A: 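Growth of Mycobacterium tuberculosis over 4 days (cholesterol / DPPC medium with tyloxapol); the read-out is not stated. Compounds at 50 µM. Direction is inferred from retests: higher values go with more growth inhibition. About 69,000 compounds were tested under these conditions; 0.54% (about 370) showed 50% or more at least once.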
B: 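Whole-cell growth test on Mycobacterium tuberculosis, read after 3 days in glucose-containing 7H9 medium; the read-out is not stated. Concentration: 50 µM. Direction is inferred from retests: higher values go with more growth inhibition. Of about 69,000 compounds tested this way, about 760 (1.1%) reached 50% or more in at least one test.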

| compound | A | B |
|---|---|---|
| `Cc1cccc(-n2nc(CC(C)C)nc2[C@H](C)O)c1` | 10.1 | 4.233 |
| `[H][C@@]12C[C@@H](O)CN1C[C@H](Cc1ccccc1)N(Cc1cnn(C=C)c1C)C2` | 1.903 | -3.286 |
| `Cc1cccc(C(=O)N2CC(C(=O)NCC3CC3)C3(CCOCC3)C2)n1.O=C(O)C(F)(F)F` (configuration not stated) | -20.44 and -15.12 | -3.618 and 17.37 |
| `CNC(=O)c1ccc2c(c1)C1(CCN(CCOC)CC1)C(=O)N2.O=C(O)C(F)(F)F` | 16.47 | 32.31 |
| `Cc1nc(C)n(CC2CCCN(CCC(=O)NC3CCCCC3)C2)n1` (configuration not stated) | 4.396 | 3.099 |
| `Cc1ccnc(N2CCC(OCCN3CCCCC3)C2)n1` (configuration not stated) | 7.352 | 3.832 |
| `Cn1ccnc1CN1CCC2(CC(=O)N(c3cccc(F)c3)C2)C1.O=C(O)C(F)(F)F` (configuration not stated) | -5.29 | 26.88 |
| `Cc1noc(C)c1CN1CC[C@H](OCC2CC2)[C@@H](Cc2ccccc2)C1` | 4.432 | 41.1 |
| `NC1(C(=O)NCC2CCCN(Cc3ccccc3F)C2)CCCC1` (configuration not stated) | 0.678 | 18.61 and -4.559 |
| `COc1cccc(C(=O)N2CCC(Nc3ccc(C)nn3)CC2)c1` | -17.83 | -14.05 |
| `Cc1cnn(CCNCc2nc(-c3ccccn3)no2)c1` | -11.86 | -27.88 and -2.356 |
| `Cc1ccc(F)c2c1CCCN2C(=O)Cc1c(C)nn(C)c1C` | -4.221 | 5.742 and 8.664 |
| `CCC(CC)CS(=O)(=O)NC(=O)C1CCC1` | 5.928 | 5.525 |
| `Cn1cc(NC(=O)c2cccc(-n3cnnn3)c2)cn1` | -16.73 | -8.541 and -20.7 |
| `CN(C)c1ncccc1CNS(=O)(=O)c1ccc(F)cc1F` | -8.209 | 12.03 |
| `Cn1ncc(NCc2cccc(OCC(F)(F)F)c2)c(Cl)c1=O` | 38.99 | 42.13 |
| `CN(C)C(=O)N1CCCn2nc(CNC(=O)CCc3cccs3)cc2C1` | -23.7 | -5.106 and -19.67 |
| `CCOCC(=O)N1CCC(c2nccn2CC2CC2)CC1` | -1.242 and 3.107 | -8.541 |
| `CC(C)OC(=O)c1ccc(Cl)c(NC(=O)NCCN2CCOCC2)c1` | 1.244 | -13.04 |
| `CN(C)C(=O)c1ccc(C2CCCN2C(=O)c2cccc3c2OCC3)s1` (configuration not stated) | -5.109 | 26.56 |
| `COc1cccc2c1N(Cc1noc(C3CC3)n1)CCC2` | -18.97 | 9.456 and -12.1 |
| `COCc1cnc2n1CCN(C(=O)c1ocnc1C)C2C` (configuration not stated) | -11.52 | -37.75 |
| `CCc1cccc(NS(=O)(=O)c2cc(C)c(C(=O)O)s2)c1` | -28.89 | -13.46 and -2.313 |
| `COc1ccc(-n2cccn2)c(CN2CCC(O)(CO)CC2)c1` | 18.52 | 1.031 and -8.211 |
| `O=C(O)C(F)(F)F.O=C(O)C(F)(F)F.[H][C@@]12OCCN(C3CCCC3)[C@@]1([H])CC[C@@H]2Oc1cccnc1` | 19.98 | -26.68 |
| `OC(CNCCn1cccn1)c1ccc2c(c1)OCCO2` (configuration not stated) | -19.58 | -5.56 |
| `COc1ccc(CCC(=O)N2CCCCC2Cn2cccn2)cc1F` (configuration not stated) | 1.483 | 9.861 |
| `O=C(CCCc1nnc(-c2ccccc2)o1)N1CCN(C2CC2)CC1` | 0.194 | 12.36 |
| `COCC1CN(C(=O)Cc2ccccn2)Cc2cn(CC3CC3)nc21` (configuration not stated) | -23.79 | -18.34 |
| `COc1ccc(CN(C)CCS(=O)(=O)c2ccc(Cl)cc2)cc1OC` | 8.532 | 12.28 |
| `CS(=O)(=O)NCC(=O)NC1(c2ccc(Cl)c(Cl)c2)CC1` | -29.18 | -22.42 and -1.442 |
| `Cc1cc(C(=O)NS(=O)(=O)Cc2ccon2)c(C)o1` | 18 | 1.834 and 8.715 |
| `C[C@@H]1CN(S(=O)(=O)N2CCCC2)CC[C@@]1(O)C1CCOCC1` | 8.166 | 9.884 and 0.5057 |
| `CCc1nc(CNc2nc3c(s2)c(C)nn3C)cs1` | 8.138 and 12.19 | 4.146 and 17.31 |
| `Cc1nn2cc(CCNC(=O)c3cc(C(C)C)nn3C)nc2s1` | -30.94 | 0.3594 |
| `CC(O)CN1CCN(Cc2coc(-c3ccccc3Cl)n2)CC1` (configuration not stated) | 3.198 | 15.04 and 19.72 |
| `COc1cccc(-c2nc(CC(=O)NC3(C)CCS(=O)(=O)C3)cs2)c1` (configuration not stated) | -3.392 | -17.72 |
| `COCCn1/c(=N\C(=O)CN(C)S(C)(=O)=O)sc2cc(OC)ccc21` | -4.844 | -31.26 |
| `CCOc1cccc(CNC2CCCN(Cc3noc(C)n3)C2)c1` (configuration not stated) | 12.86 | 18.26 |
| `O=C(c1ccsc1)N1CCc2ncc(Cn3cncn3)n2CC1` | -13.67 and 11.02 | -6.843 |
| `CCNc1ncc(C(=O)N[C@H](C(N)=O)c2ccccc2)cn1` | -24.95 | -41.44 |
| `Cc1cccc(CN2CCC3(CC2)CC(c2cccnc2)C(=O)N3C)n1.O=C(O)C(F)(F)F.O=C(O)C(F)(F)F` (configuration not stated) | -9.878 | -8.516 |
| `Cc1ccc2c(c1)C(NC1CCN(C)CC1)CCCO2` (configuration not stated) | -21.65 | -8.84 and -9.222 |
| `Cc1cn[nH]c1C1CCCCN1C(=O)CCN1CCCCCC1` (configuration not stated) | -2.055 | 5.426 |
| `O=C(OCc1ccccc1)c1cccc(NC(=O)C2COCCO2)c1` (configuration not stated) | -1.484 | 10.13 |
| `CCc1cc(CNCc2ccccc2N(C)C2CCN(C)CC2)on1` | -10.33 | 15.75 |
| `Cc1cc2nc(SCC(=O)NC(C)C)n(Cc3ccco3)c(O)c-2n1` | -3.029 | 17.39 |
| `CC(C)N1CCC(CC(=O)NC(C(=O)O)c2cccc(F)c2)CC1` (configuration not stated) | 14.96 | 8.219 |
| `CCn1cc(CNC2CCN(c3cccc(C)c3C)CC2)cn1` | 1.643 | 15.37 |
| `Cc1cc(-c2cnc(N3CCSCC3)nc2C(C)C)on1` | -16.48 and -16.34 | -11.52 |

Some entries from above, unchanged:

With CCOc1cccc(CNC2CCCN(Cc3noc(C)n3)C2)c1 (configuration not stated) the screen gave A: 12.86%; B: 18.26%.
With O=C(CCCc1nnc(-c2ccccc2)o1)N1CCN(C2CC2)CC1 the screen gave A: 0.194%; B: 12.36%.
With O=C(c1ccsc1)N1CCc2ncc(Cn3cncn3)n2CC1 the screen gave A: -13.67% and 11.02%; B: -6.843%.
With CCOCC(=O)N1CCC(c2nccn2CC2CC2)CC1 the screen gave A: -1.242% and 3.107%; B: -8.541%.